Some of these results come from one statement about several compounds together. At least one compound was matched to its structure with a doubt left.
How the values were obtained:
A2780/CP3 = assay: Cytotoxicity IC50 in A2780/CP3 cell line, 1 hour drug exposure; assay type: cell-based; conditions: resistance factor = IC50 in A2780/CP3 ÷ IC50 in A2780/WT
Method: (§1) All experiments are with 1 hour of exposure to the drug, IC50 in μM. The platinum compounds have been tested by the resistance factor in CP3 cell line (CP3 Rfact) and C25 cell line (C25 Rfact). The terms (CP3 Rfact) and (C25 Rfact) are determined utilizing the following equations, wherein WT stands for wild-type. CP3 Rfact=IC50 in A2780/CP3÷IC50 in A2780/WT C25 Rfact=IC50 in A2780/C25÷IC50 in A2780/WT
(§2) In addition, Compounds with “ - - - ” in the IC50 column indicate the IC50s are >100 μM.

A2780/C25 = assay: Cytotoxicity IC50 in A2780/C25 cell line, 1 hour drug exposure; assay type: cell-based; conditions: resistance factor = IC50 in A2780/C25 ÷ IC50 in A2780/WT
Method: as §1, §2

Row | Compound | CP3 Rfact (A2780/CP3) | C25 Rfact (A2780/C25)
1 | Cc1ccccc1CC#[N+][Pt-2]([Cl])([Cl])[N+]#CCc1ccccc1C [BNP3024, Cis-bis-(o-tolylacetonitrile)dichloroplatinum (II)] | < 2 | < 2
2 | N#CCCCc1ccccc1.N#CCCCc1ccccc1.[Cl][Pt@SP1][Cl] [BNP3029/c, Cis-bis-(4-phenylbutyronitrile)dichloroplatinum (II)] | < 2 | < 2
3 | N#CCCC1CCCCC1=O.N#CCCC1CCCCC1=O.[Cl][Pt@SP1][Cl] (stereo not drawn) [BNP3020, Cis-bis[3-(2-oxo-cyclohexyl)-propionitrile]dichloroplatinum (II)] | < 2 | < 2
4 | N#CCCCc1ccccc1.N#CCCCc1ccccc1.[Cl][Pt@SP1][Cl] [BNP3029/t, Trans-bis-(4-phenylbutyronitrile)dichloroplatinum (II)] | < 2 | < 2
5 | Cc1cccc(CC#[N+][Pt-2]([Cl])([Cl])[N+]#CCc2cccc(C)c2)c1 [BNP3026, Cis-bis(m-tolylacetonitrile)dichloroplatinum (II)] | < 2 | < 2
6 | Cis-bis-[4-(trifluoromethoxy)-phenylacetonitrile]dichloroplatinum (II) [BNP3031] | < 2 | < 2

Source: patent US7777060B2, “Platinum analogs with bis-nitrile-containing ligands” (BioNumerik Pharmaceuticals, Inc., priority 2007, dated 2010)
